The data set is described as follows: Patch imaging and membrane tension calculation. On the set-up: species or system Xenopus laevis. The settings on record: 50 μM CBD; for calculated membrane tension: representative image.

The structures appear in SMILES notation.

Consider `C=C(C)[C@@H]1CCC(C)=C[C@H]1c1c(O)cc(CCCCC)cc1O` [CBD, Cannabidiol], for which the “effect on membrane tension” value is “no effect on membrane tension”. The calculated membrane tension (10 mmHg) is reported as 3.88 mN/m. Also, for the setting “50 mmHg”, the calculated membrane tension is recorded as 15.36 mN/m.

The values are drawn from doi:10.1101/2024.12.09.627564, “Cannabinoid inhibition of mechanosensitive K^+ channels” (bioRxiv, 2024).
